The list shows a part of the results. The main result of the screen is listed elsewhere. These columns were measured beside it and carry no call. Compounds called inactive in the main read-out are mostly missing here. The note in brackets gives the kind of curve behind each potency; many fits are weak.
Assay: qHTS Assay for Lipid Storage Modulators in Drosophila S3 Cells;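 on cell number change: cells counted by Cell Tracker Red CMTPX staining in the red channel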
Settings: BODIPY lipid droplet fluorescence, 18-24 h; for cell number change: measured here: cell count max response, cells fed with added oleic acid
Method in brief: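 Drosophila S3 cells got compounds at several concentrations plus oleic acid (400 uM solution). Laser-scanning cytometry with 488 nm excitation read lipid droplets at 500-530 nm and cells at 575-640 nm. Percent activity was relative to 20 uM Triacsin C.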

[1] = measured here: lipid fluorescence (Fed channel) AC50, cells fed with added oleic acid
[2] = measured here: cell number channel AC50, cells fed with added oleic acid

Structure (SMILES)	cell number change [%]	AC50 [1]	AC50 [2]
COc1ccc(-c2cc(-c3cccs3)c(C#N)c(SCC(=O)NCc3ccccc3OC)n2)cc1	1.14	6.51 µM [falling, partial curve]	–
COc1ccc(C(=O)Oc2ccc(C(=S)N3CCCC3)cc2)cc1OC	-33.3	2.91 µM [rising, single point]	0.731 µM [falling, full curve, poor fit]
COc1ccc(-c2nc(CSCC(=O)N3CCN(C)CC3)c(C)o2)cc1OC	25.1	1.03 µM [rising, full curve]	0.411 µM [rising, full curve, poor fit]
Cc1cccc(N2CCN(C(=O)c3ccc4c(c3)NC(=O)C(CSCc3ccc(F)cc3)N4)CC2C)c1 (centres undefined)	34.3	–	–
Cn1ccc(-c2cc(C(=O)O)c3ccccc3n2)n1	3.69	2.06 µM [rising, partial curve, poor fit]	1.46 µM [rising, partial curve]
COc1ccccc1NC(=S)NCCc1ccc(F)cc1	-32.5	–	0.092 µM [falling, full curve, poor fit]
CCOc1cc(/C=N/NC(=O)c2ccc(CN3CCOCC3)cc2)ccc1OCc1ccccc1	37.4	0.58 µM [rising, full curve]	29.1 µM [rising, single point]
CCOC(=O)c1c(-c2ccccc2Cl)csc1NC(=O)CSc1nc(C)cc(=O)[nH]1	28.8	–	–
O=C(COc1cc(Cl)c(Cl)cc1Cl)Nc1ccncc1	-105	29.1 µM [falling, single point]	29.1 µM [falling, single point]
CCOc1cc(-c2noc(CCC(=O)NCCc3ccccc3)n2)ccc1OC	-25.3	29.1 µM [falling, single point]	–
O=C1Nc2cc(C(=O)NCCCN3CCCC3)ccc2S/C1=C/c1ccccc1F	12.7	–	0.259 µM [rising, full curve, poor fit]
CCCOc1ccccc1N/C(=N/c1nc(C)cc(C)n1)NC(=O)COc1ccc(OC)cc1	-116	–	11.6 µM [falling, partial curve, poor fit]
CC1(C)C=C(c2ccc(C=O)s2)CC(C)(C)N1	-46.8	3.26 µM [falling, partial curve]	32.6 µM [falling, partial curve, poor fit]
CC1CCCN(CCCNC(=O)c2ccc(NC(=O)C3=CSCCO3)cc2)C1 (centres undefined)	–	0.82 µM [falling, full curve, poor fit]	–
CCc1ccccc1N(C(=O)c1snc(C(N)=O)c1N)C(C(=O)NCC1CCCO1)c1c[nH]c2ccccc12 (centres undefined)	19.7	–	0.461 µM [rising, partial curve, poor fit]
O=C(c1ccccc1F)N1CCN(CC2CC3C=CC2C3)CC1 (centres undefined)	-2.18	0.411 µM [falling, single point]	–
CCN1C(=O)/C(=C/C=C2/Sc3ccccc3N2CCO)SC1=S	-9.29	16.4 µM [falling, partial curve]	–
Cc1cc(C)cc(NC(=O)c2cccnc2)c1	-5.56	–	–
COc1cccc(/C=N\n2c(C)nnc2C)c1OC	7.06	7.31 µM [rising, partial curve]	–

Structure (SMILES)	cell number change [%]	AC50 [1]	AC50 [2]
Cc1ccc(S(=O)(=O)N2CCOC23CCN(S(=O)(=O)c2c(C)cc(C)cc2C)CC3)cc1	-36	–	–
CCc1ccccc1NC(=O)CSc1nnc([C@@H](N)Cc2ccccc2)o1	-15.9	9.2 µM [rising, partial curve]	–
O=C(N/N=C/c1cc([N+](=O)[O-])ccc1O)/C(=C\c1cccs1)NC(=O)c1ccccc1	-37.1	0.00461 µM [falling, full curve, poor fit]	20.6 µM [falling, partial curve]
Cc1ccc2c(CNCc3ccccc3)cc(=O)oc2c1	-6.67	1.16 µM [rising, single point]	–
Cc1cc(C)cc(NC(=O)[C@H](NC(=O)[C@@H]2Cc3ccccc3CN2)c2ccccc2)c1	-0.472	6.51 µM [rising, single point]	–
CCCCN(C)C(=O)C1CCC(CNS(=O)(=O)c2ccc3c(c2)CC(C)N3C(=O)C2CC2)CC1 (centres undefined)	-41.1	4.61 µM [falling, single point]	16.4 µM [falling, single point]
COc1ccccc1CNC(=O)COC(=O)COc1ccccc1Cc1ccccc1	-29.5	–	–
O=S(=O)(N/N=C1/CCCc2ccccc21)c1ccc(Br)cc1	-26.7	29.1 µM [falling, single point]	–
COC(=O)C1CN(S(=O)(=O)c2ccc(C)cc2)CCN1S(=O)(=O)c1ccc(C)cc1 (centres undefined)	-2.53	–	–
COC(=O)[C@@]1(Cc2ccccc2)[C@@H]2C(=CC(=O)[C@H]2CC(=O)C(=O)N(C)C)CN1C(=O)c1ccccc1	-6.55	0.116 µM [falling, full curve]	–
CC(=O)Nc1ccc(S(=O)(=O)Nc2ccc(S(=O)(=O)Nc3ncccn3)cc2)cc1	5.65	6.51 µM [falling, single point]	–
CC1=CC(C)(C)n2c(O)c(N=NC(N)=S)c3c(C)c(C)cc1c32	-15.8	4.61 µM [falling, single point]	–
Cc1cc(C)c2c(=O)n(CC(=O)N3CCC(N4CCCCC4)CC3)sc2n1	-69.7	18.4 µM [falling, single point]	18.4 µM [falling, single point]
CCCn1c(N)c(C(=O)CSc2nnc(N)s2)c(=O)[nH]c1=O	-51.3	18.4 µM [rising, single point]	29.1 µM [falling, single point]
O=C(Nc1ccc(-c2noc(CCc3ccccc3)n2)cc1)c1cccnc1	–	0.103 µM [rising, full curve, poor fit]	2.91 µM [rising, partial curve]
c1ccc(-n2nnnc2Cc2nnnn2-c2ccccc2)cc1	-29	16.4 µM [falling, single point]	4.11 µM [falling, full curve, poor fit]
CN(C(=O)COC(=O)c1cccc(S(=O)(=O)N2CCCCCC2)c1)C1CCS(=O)(=O)C1 (centres undefined)	-46.5	–	29.1 µM [falling, single point]
CCOC(=O)N1CCN(S(=O)(=O)c2ccc(C)c(C)c2C)CC1	41.3	–	29.1 µM [rising, single point]
CCC(=O)N1C(C(=O)O)CSC1c1ccc(OC)cc1 (centres undefined)	3.05	3.26 µM [rising, single point]	–

Structure (SMILES)	cell number change [%]	AC50 [1]	AC50 [2]
COC(=O)c1sccc1NC(=O)CSc1ccccc1NS(=O)(=O)c1ccc(Br)cc1	130	29.1 µM [rising, single point]	20.6 µM [rising, partial curve]
O=C(N/N=C1\CCSc2ccc(F)cc21)c1cccnc1	2.98	6.51 µM [rising, single point]	–
CC(=O)N[C@@H]1c2c(ccc3ccccc23)OC[C@@H]1COC(C)=O	-51.5	6.51 µM [falling, partial curve, poor fit]	3.26 µM [falling, partial curve, poor fit]
Cc1cccc(Nc2cc(C)c3c(O)cccc3n2)c1C	-82.7	13 µM [falling, partial curve]	14.6 µM [falling, partial curve]
CCCc1[nH]nc2c1C(c1ccc(OC)c(Cn3nc(C)c(Br)c3C)c1)C(C#N)=C(N)O2 (centres undefined)	-74.7	0.291 µM [rising, full curve, poor fit]	29.1 µM [falling, single point]
CS(=O)(=O)c1ccccc1-c1nc(-c2cccc(Cl)c2)no1	7.69	–	–
COc1cc(Cl)c(C)cc1NC(C)C(=O)Nc1cc(C(F)(F)F)ccc1N1CCOCC1 (centres undefined)	32	–	5.8 µM [rising, partial curve]
Nc1nonc1N1CCCCC1	-109	29.1 µM [falling, partial curve]	–
CCCCNC(=O)[C@H]1C[C@H]1[C@@H](O)[C@H](CO)NC(=O)[C@H](CC(C)C)NC(=O)OC(C)(C)C	18	–	–
Cc1ccc(-n2c(C)cc(C(=O)CSc3n[nH]c(N)n3)c2C)cc1	0.297	–	–
COc1ccc(NC(=O)CN2C(=O)C(C)Oc3ccccc32)c(OC)c1 (centres undefined)	45.1	–	29.1 µM [rising, single point]
Cc1ccc(SCCC(=O)N2CCN(S(=O)(=O)c3ccccc3)CC2)cc1	-10.7	–	–
O=C(NCc1ccco1)c1ccc2c(c1)C(=O)N(C1CCCCC1)C2=O	45.6	29.1 µM [rising, single point]	–
COc1ccc(NC(=O)C(=O)c2cn(CC(=O)N3CCOCC3)c3ccccc23)cc1OC	-3.54	6.51 µM [rising, single point]	–
Cc1cc2c(cc1C)NC(c1nc3ccccc3[nH]1)C1=C(CC(C)(C)CC1=O)N2 (centres undefined)	-12.7	–	–
CN(CC(=O)Nc1c(Cl)cccc1Cl)C(=O)CNC(=O)c1ccc2c(c1)OCO2	–	0.0651 µM [rising, full curve, poor fit]	–
COc1ccc(CN(C(=O)c2oc3cc(C)c(C)cc3c2C)C2CCS(=O)(=O)C2)cc1OC (centres undefined)	-36.2	10.3 µM [falling, partial curve]	23.1 µM [falling, single point]
CC1CN(c2cc3nccnc3cc2F)CC(C)O1 (centres undefined)	21	–	–

— PubChem BioAssay AID2685 (National Center for Advancing Translational Sciences (NCATS), 2010)
